This passage reports binding signal results from PMC7819943, “Rice protein-binding microarrays: a tool to detect cis-acting elements near promoter regions in rice”.

Chains of the proteins cited; added tags and fusions are not shown.
UniProt Q0JBA9, entry or part of it: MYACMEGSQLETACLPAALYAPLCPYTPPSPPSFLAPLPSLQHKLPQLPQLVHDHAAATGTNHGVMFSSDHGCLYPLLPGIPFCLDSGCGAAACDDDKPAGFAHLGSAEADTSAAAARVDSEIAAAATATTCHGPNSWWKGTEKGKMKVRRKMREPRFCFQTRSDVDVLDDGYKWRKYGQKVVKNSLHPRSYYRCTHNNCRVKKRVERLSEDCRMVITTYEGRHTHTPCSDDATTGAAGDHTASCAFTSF

The other results are listed elsewhere or left out.

For the test, the target named is OsWRKY34 (Oryza sativa, UniProt Q0JBA9 1-250). As to the kind of experiment: protein-binding microarray (RPBM); PBS, 2% BSA, 51.3 ng/ul salmon testes DNA, 50 uM zinc acetate, 200 nM TF, 25 C, 1 h; high values mean tight binding. The settings on record: protein: recombinant; tags: N-terminal polyhistidine and DsRed monomer fusion (pET32a); label: CyDye5-dUTP incorporated in the synthesized complementary strand; 3' TTTTT single-stranded linker to array surface; dsDNA, one strand shown. Summed up:
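Per-feature fluorescence intensity (arbitrary units), read on an Axon 4000B scanner, is the binding signal. Transcription factors carrying an N-terminal polyhistidine tag and DsRed fusion were expressed in E. coli BL21-CodonPlus and purified on Ni–NTA. A custom Agilent array, made double-stranded by primer extension with Cy5-dUTP and blocked with 2% BSA, was incubated with 200 nM protein in PBS, 2% BSA, salmon testes DNA and 50 µM zinc acetate at 25 °C for 1 h and then washed.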
Regarding “TTCGATACGTTTCACGTTTGCTACCACACAACACATTTCACGGAGTCACCTAGTGCAG”, the binding signal was 9420 fluorescence intensity (a.u.).

Turning to “CCCGGCCACATTATTTCGGGTCAAATTCGGGTCGAGAATTCGGAGTCACCTAGTGCAG”, the binding signal was 8330 fluorescence intensity (a.u.).

Turning to “TCATCCATAGTTAAAAGCAAGTTGGTCTGACCATATTCTTCGGAGTCACCTAGTGCAG”, the binding signal is 8390 fluorescence intensity (a.u.).

For “TGTAACTAACCATAAAGCTACCCTCATACTTGCTGATAACCGGAGTCACCTAGTGCAG”, the binding signal was 8800 fluorescence intensity (a.u.).

With “AACTCGGCTCAACTCGTACGCACCGGCGCTGCCGCGCCTTCGGAGTCACCTAGTGCAG”, the binding signal was 10400 fluorescence intensity (a.u.).

Regarding “CATCCAAACCGTCCATCCACGCGCACAGTACACACACATACGGAGTCACCTAGTGCAG”, the binding signal was 11200 fluorescence intensity (a.u.).

For “ATGATGTATCTGTATCAACTTGTTCAATCTCGGTTAACTGCGGAGTCACCTAGTGCAG”, the binding signal was 8090 fluorescence intensity (a.u.).

For the sequence “CTCTCAATACGAAATATCGTACTACGTTATGCATTTGTTTCGGAGTCACCTAGTGCAG”, the binding signal is 8160 fluorescence intensity (a.u.).

In the case of “TTCATTTACTAGTTATTGGGGTTCTTCTTCAGATCATTTGCGGAGTCACCTAGTGCAG”, the binding signal is 9370 fluorescence intensity (a.u.).

“TAACACCCTCCGCGCATTTACCGCTCGCCGCTCCGCCGTACGGAGTCACCTAGTGCAG”: the binding signal is 8330 fluorescence intensity (a.u.).

For “ATTATAAGGTATTGCATGCTATGTTTTCCTTGCGACTTAACGGAGTCACCTAGTGCAG”, the binding signal was 8650 fluorescence intensity (a.u.).

On to “TATTTGGACTCTATACTCTACTTCTAATATTCGTTATTTTCGGAGTCACCTAGTGCAG”, for which the binding signal was 9980 fluorescence intensity (a.u.).

On to “TGTAGGATGTATTTGGAGTTTCAACTAGTTCCAAGATTTTCGGAGTCACCTAGTGCAG”, for which the binding signal is 10100 fluorescence intensity (a.u.).

Regarding “TCCCACTATTTCCTATCTCTCGCGTCGCGCCGCGCACTCCCGGAGTCACCTAGTGCAG”, the binding signal was 9080 fluorescence intensity (a.u.).

On to “CCTCGCCGGACAAGTAAAGTAAGCTCATCTCTTGCGCTTTCGGAGTCACCTAGTGCAG”, for which the binding signal is 8130 fluorescence intensity (a.u.).

On to “AACTGAAAGATCATTGTACACACCAGCATTACCTGTAAACCGGAGTCACCTAGTGCAG”, for which the binding signal was 8370 fluorescence intensity (a.u.).

As to “CGTCCATGCACTTCACTCAATTTTTTTCTTTGCACATAACCGGAGTCACCTAGTGCAG”, the binding signal is 10400 fluorescence intensity (a.u.).

As for “TCTCGTTTGAAGTTTTTTTTTTTCGCGTGTCCACAACCATCGGAGTCACCTAGTGCAG”, the binding signal is 9480 fluorescence intensity (a.u.).

“CTCATCTCGCCCTTCTTTGCCACCGCCAACATCTTCGTCGCGGAGTCACCTAGTGCAG”: the binding signal is 11900 fluorescence intensity (a.u.).

As to “AAGTCTTTGATCCCCTTTAATTCCTTGTTCCATGTACTACCGGAGTCACCTAGTGCAG”, the binding signal is 9080 fluorescence intensity (a.u.).

Consider “GGCGGGTGGTGATGGCGGGGAGGCAGGCCAACGAGCGCGACGGAGTCACCTAGTGCAG”, for which the binding signal is 10700 fluorescence intensity (a.u.).

Regarding “TGTCGTTGTTGTCATCGTTCTTTAATTTCCTGTCCTTTCACGGAGTCACCTAGTGCAG”, the binding signal was 10300 fluorescence intensity (a.u.).

“ACTCAACCATTTATTTTTCCAACCTACTTCCTTCGTCTCACGGAGTCACCTAGTGCAG”: the binding signal is 8990 fluorescence intensity (a.u.).
